Measurements: US7999136B2 (priority 2007, dated 2011)
Some results were stated once for a whole list of compounds, not compound by compound. At least one structure is not confirmed: it was looked up by name or label, or the drawing left a doubt.

Key:
Assay type in all cases: in vivo
[1] = test system: Botrytis cinerea; assay: Test of preventive effect on cucumber gray mold; conditions: cucumber (Sagamihanjiro), foliage application 500 ppm, 4 days after inoculation
[2] = test system: Phytophthora infestans; conditions: tomato (Patio), foliage application 500 ppm, preventive, 5 days after inoculation
[3] = test system: Plasmopara viticola; assay: Test of curative effect on grape downy mildew; conditions: grape (seedling of Berry-A), foliage application 500 ppm, curative (1 day after inoculation), 6 days after application
[4] = test system: Alternaria brassicicola; assay: Test of preventive effect on Japanese radish Alternaria leaf spot; conditions: Japanese radish (Wase 40-nichi), foliage application 500 ppm, 4 days after inoculation
[5] = test system: Stagonospora nodorum; assay: Test of preventive effect on wheat glume blotch; conditions: wheat (Shirogane), foliage application 500 ppm, 8 days after inoculation
[6] = test system: Fusarium culmorum; assay: Test of preventive effect on wheat Fusarium blight; conditions: wheat (Shirogane), foliage application 500 ppm, 7 days after inoculation
[7] = test system: Magnaporthe oryzae; conditions: rice (Nihonbare), foliage application 500 ppm, preventive, 6 days after contact with infected seedling
[8] = test system: Sclerotinia sclerotiorum; assay: Test of preventive effect on cucumber stem rot; conditions: cucumber (Sagamihanjiro), foliage application 500 ppm, 4 days after inoculation

C#CCOc1c(F)cc(C(=O)NC2CCCCC2C)c(F)c1F (stereo not drawn) [compound 2]
area of lesion spots on the treated plant relative to that on an untreated plant [1]: ≤ 30% | area of lesion spots on the treated plant relative to that on an untreated plant [2]: ≤ 30%

C#CCOc1c(F)cc(C(=O)NC(C)C(C)C)c(F)c1F (stereo not drawn) [compound 3]
area of lesion spots on the treated plant relative to that on an untreated plant [2]: ≤ 30%

C#CCOc1c(F)cc(C(=O)N[C@@H]2CCCC[C@H]2Cl)c(F)c1F [compound 4]
area of lesion spots on the treated plant relative to that on an untreated plant [1]: ≤ 30%

C#CCOc1c(F)cc(C(=O)NC(C)C2CCC2)c(F)c1F (stereo not drawn) [compound 6]
area of lesion spots on the treated plant relative to that on an untreated plant [1]: ≤ 30% | area of lesion spots on the treated plant relative to that on an untreated plant [3]: ≤ 30%

C#CCOc1c(F)cc(C(=O)NCC2(O)CCCCC2)c(F)c1F [compound 7]
area of lesion spots on the treated plant relative to that on an untreated plant [1]: ≤ 30% | area of lesion spots on the treated plant relative to that on an untreated plant [4]: ≤ 30%

C#CCOc1cc(F)c(C(=O)NCC2CCCCC2)cc1F [compound 8]
area of lesion spots on the treated plant relative to that on an untreated plant [5]: ≤ 30% | area of lesion spots on the treated plant relative to that on an untreated plant [2]: ≤ 30%

C#CCOc1cc(F)c(C(=O)NC2CCCCC2C)cc1F (stereo not drawn) [compound 9]
area of lesion spots on the treated plant relative to that on an untreated plant [1]: ≤ 30% | area of lesion spots on the treated plant relative to that on an untreated plant [5]: ≤ 30% | area of lesion spots on the treated plant relative to that on an untreated plant [2]: ≤ 30% | area of lesion spots on the treated plant relative to that on an untreated plant [6]: ≤ 30% | area of lesion spots on the treated plant relative to that on an untreated plant [7]: ≤ 30%

C#CCOc1cc(F)c(C(=O)NC(C)C(C)C)cc1F (stereo not drawn) [compound 10]
area of lesion spots on the treated plant relative to that on an untreated plant [1]: ≤ 30% | area of lesion spots on the treated plant relative to that on an untreated plant [7]: ≤ 30% | area of lesion spots on the treated plant relative to that on an untreated plant [3]: ≤ 30%

C#CCOc1cc(F)c(C(=O)N[C@@H]2CCCC[C@H]2Cl)cc1F [compound 11]
area of lesion spots on the treated plant relative to that on an untreated plant [1]: ≤ 30% | area of lesion spots on the treated plant relative to that on an untreated plant [2]: ≤ 30% | area of lesion spots on the treated plant relative to that on an untreated plant [4]: ≤ 30%

C#CCOc1cc(F)c(C(=O)N[C@@H](C)C2CCCCC2)cc1F [compound 12]
area of lesion spots on the treated plant relative to that on an untreated plant [2]: ≤ 30%

C#CCOc1cc(F)c(C(=O)NC(C)C2CCC2)cc1F (stereo not drawn) [compound 13]
area of lesion spots on the treated plant relative to that on an untreated plant [1]: ≤ 30% | area of lesion spots on the treated plant relative to that on an untreated plant [4]: ≤ 30% | area of lesion spots on the treated plant relative to that on an untreated plant [8]: ≤ 30% | area of lesion spots on the treated plant relative to that on an untreated plant [3]: ≤ 30%

C#CCOc1cc(F)c(C(=O)NCC2(O)CCCCC2)cc1F [compound 14]
area of lesion spots on the treated plant relative to that on an untreated plant [1]: ≤ 30% | area of lesion spots on the treated plant relative to that on an untreated plant [4]: ≤ 30% | area of lesion spots on the treated plant relative to that on an untreated plant [8]: ≤ 30%

C#CCOc1cc(Cl)c(C(=O)NCC2CCCCC2)cc1F [compound 16]
area of lesion spots on the treated plant relative to that on an untreated plant [6]: ≤ 30%
